Data as given in patent publication US20110195896A1, “ISOFORM-SPECIFIC INSULIN ANALOGUES” (CASE WESTERN RESERVE UNIVERSITY, priority 2008, published 2011).
No constants are given. Whether binding was seen depends on the method and setting. Some results given as binding are weak or reduced against the parent protein; the word gives no strength.

Amino acid sequences for entries named in this document (tags omitted). Residues count along the entry.
UniProt P08069, residues 31-1367: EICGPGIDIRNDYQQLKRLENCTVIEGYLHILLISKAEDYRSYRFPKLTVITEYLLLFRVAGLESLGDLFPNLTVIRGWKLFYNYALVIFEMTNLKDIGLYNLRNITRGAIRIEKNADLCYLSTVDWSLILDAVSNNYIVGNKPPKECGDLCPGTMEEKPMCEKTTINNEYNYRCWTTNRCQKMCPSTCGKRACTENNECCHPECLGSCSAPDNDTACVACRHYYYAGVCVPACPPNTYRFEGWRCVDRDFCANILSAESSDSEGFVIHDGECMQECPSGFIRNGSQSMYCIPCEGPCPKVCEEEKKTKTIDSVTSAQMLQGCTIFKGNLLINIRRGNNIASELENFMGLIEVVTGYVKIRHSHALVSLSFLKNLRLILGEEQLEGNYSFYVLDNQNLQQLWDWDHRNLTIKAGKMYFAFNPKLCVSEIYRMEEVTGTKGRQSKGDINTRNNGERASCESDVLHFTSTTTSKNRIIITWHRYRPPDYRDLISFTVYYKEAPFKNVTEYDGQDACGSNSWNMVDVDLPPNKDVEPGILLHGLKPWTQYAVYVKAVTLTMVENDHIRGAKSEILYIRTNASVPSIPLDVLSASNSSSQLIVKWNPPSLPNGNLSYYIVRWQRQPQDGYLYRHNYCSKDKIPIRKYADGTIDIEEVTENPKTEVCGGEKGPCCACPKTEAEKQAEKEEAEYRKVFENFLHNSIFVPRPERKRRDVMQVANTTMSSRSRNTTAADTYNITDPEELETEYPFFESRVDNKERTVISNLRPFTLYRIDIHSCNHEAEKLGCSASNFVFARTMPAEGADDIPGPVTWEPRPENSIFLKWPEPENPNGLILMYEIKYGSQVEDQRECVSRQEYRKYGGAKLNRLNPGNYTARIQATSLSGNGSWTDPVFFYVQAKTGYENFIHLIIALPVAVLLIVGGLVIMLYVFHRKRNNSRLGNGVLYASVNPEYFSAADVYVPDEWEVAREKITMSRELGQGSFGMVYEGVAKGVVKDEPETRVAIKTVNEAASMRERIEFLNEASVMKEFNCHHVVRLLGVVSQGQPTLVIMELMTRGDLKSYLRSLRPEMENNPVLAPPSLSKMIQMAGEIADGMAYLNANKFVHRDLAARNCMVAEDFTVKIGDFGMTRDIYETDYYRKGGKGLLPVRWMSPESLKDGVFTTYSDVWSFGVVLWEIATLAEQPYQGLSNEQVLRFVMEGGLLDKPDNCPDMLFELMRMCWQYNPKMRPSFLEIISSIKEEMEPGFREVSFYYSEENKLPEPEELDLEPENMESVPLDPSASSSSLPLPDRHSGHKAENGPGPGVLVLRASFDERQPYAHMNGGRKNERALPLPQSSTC

Experiments:
Type I IGF receptor [1] = target: Type I IGF receptor (UniProt P08069); assay: competitive displacement assay on IGFR
Type I IGF receptor [2] = target: Type I IGF receptor (UniProt P08069); assay: competitive displacement of 125I-IGF-1 from IGFR

His^A8, Asp^B10, Asp^B28, Pro^B29 SCI (from UniProt P30407 25-110) (ligand)
binding (Type I IGF receptor [1]): binds

[His^A8, Asp^B28, Pro^B29]-SCI (57-mer single-chain insulin analogue, linker GGGPRR) (from UniProt P30407 25-110) (ligand)
binding (Type I IGF receptor [2]): binds
